# Results are given in words; binding and its absence hold for the method and conditions named. In cells and extracts the contact can be indirect. These calls come from enrichment with a bait or labelling near it, and not all partners need be listed.
# The chains behind the UniProt entries cited, without tags or fusion partners.
# UniProt P46379: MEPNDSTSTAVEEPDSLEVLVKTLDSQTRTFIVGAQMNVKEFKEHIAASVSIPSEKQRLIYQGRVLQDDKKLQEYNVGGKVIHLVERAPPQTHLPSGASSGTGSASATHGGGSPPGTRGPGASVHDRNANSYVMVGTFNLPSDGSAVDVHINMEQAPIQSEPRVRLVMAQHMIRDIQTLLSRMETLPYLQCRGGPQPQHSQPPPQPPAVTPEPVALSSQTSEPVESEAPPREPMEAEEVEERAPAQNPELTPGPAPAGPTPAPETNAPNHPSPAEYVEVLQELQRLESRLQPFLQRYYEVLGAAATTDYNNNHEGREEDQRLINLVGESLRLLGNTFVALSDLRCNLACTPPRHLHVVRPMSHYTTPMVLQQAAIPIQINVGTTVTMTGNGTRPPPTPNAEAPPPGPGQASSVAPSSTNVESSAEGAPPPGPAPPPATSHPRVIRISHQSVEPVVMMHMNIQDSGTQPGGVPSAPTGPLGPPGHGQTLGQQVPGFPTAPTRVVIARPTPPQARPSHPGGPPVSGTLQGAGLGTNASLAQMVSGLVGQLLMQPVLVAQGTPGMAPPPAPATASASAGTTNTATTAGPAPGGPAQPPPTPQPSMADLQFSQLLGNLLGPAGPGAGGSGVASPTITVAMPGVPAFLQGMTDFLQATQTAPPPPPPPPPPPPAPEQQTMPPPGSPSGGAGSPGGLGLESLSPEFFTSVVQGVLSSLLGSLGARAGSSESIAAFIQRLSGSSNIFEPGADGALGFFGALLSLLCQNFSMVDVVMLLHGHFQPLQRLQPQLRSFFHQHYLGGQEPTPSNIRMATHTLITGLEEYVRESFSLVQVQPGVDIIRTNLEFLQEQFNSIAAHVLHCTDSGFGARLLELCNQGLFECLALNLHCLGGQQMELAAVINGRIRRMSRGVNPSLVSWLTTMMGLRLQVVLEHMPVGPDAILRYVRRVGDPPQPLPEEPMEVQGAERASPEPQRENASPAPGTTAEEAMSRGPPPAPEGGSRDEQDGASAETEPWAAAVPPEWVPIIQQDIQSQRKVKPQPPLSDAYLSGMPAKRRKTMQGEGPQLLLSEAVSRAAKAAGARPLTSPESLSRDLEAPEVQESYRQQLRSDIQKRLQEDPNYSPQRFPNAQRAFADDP
# Molecular target: T1, RAB3A (bait of the mass spectrometry experiment and of the Co-IP assays of Fig. S7; construct not told) (UniProt P20336)
# T1 sequence: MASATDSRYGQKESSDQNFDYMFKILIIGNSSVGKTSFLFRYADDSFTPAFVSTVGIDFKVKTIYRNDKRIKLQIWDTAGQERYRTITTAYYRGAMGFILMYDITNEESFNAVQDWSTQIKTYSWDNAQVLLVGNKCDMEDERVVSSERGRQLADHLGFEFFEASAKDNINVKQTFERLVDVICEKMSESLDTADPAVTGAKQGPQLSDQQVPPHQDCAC
# Assay: affinity purification with mass spectrometry; immunoprecipitates of RAB3A from the indicated stable cells sent for mass spectrometry analysis
substance,measurement,value
BAG6 (endogenous) (from UniProt P46379 1-1132),binding,binds

# Reference: article PMC12698754
